# Test results published in patent US11680049B2, “Certain (2S)-N-[(1S)-1-cyano-2-phenylethyl]-1,4-oxazepane-2-carboxamides as dipeptidyl peptidase 1 inhibitors” (AstraZeneca AB, priority 2014, dated 2023).
# Test: Test B: In-vitro competitive aortic tissue binding assay
# Design: species or system Han Wistar rat
# Conditions: 100 μM compound pre-incubated overnight with rat aortic homogenate, competition with 14C-labelled WO2010/128324 Ex. 3, categories: strong binder, medium binder, no binder
row,Structure (SMILES),Aortic Tissue Binding
1,N#Cc1ccc(-c2ccc(C[C@@H](C#N)NC(=O)[C@@H]3CCCCN3)cc2)cc1 [WO2009/074829 (Example 24)],Binder
2,"N#Cc1ccc(-c2ccc(C[C@@H](C#N)NC(=O)C3(N)CCOCC3)cc2)cc1 [WO2010/128324 (Ex. 3), 4-amino-N-[(1S)-1-cyano-2-(4′-cyanobiphenyl-4-yl)ethyl]tetrahydro-2H-pyran-4-carboxamide]",Strong binder (reference)
3,Cn1c(=O)oc2ccc(-c3ccc(C[C@@H](C#N)NC(=O)C4(N)CCOCC4)cc3)cc21 [WO2010/128324 (Example 17)],Strong binder
4,"Cn1c(=O)oc2ccc(-c3ccc(C[C@@H](C#N)NC(=O)[C@@H]4CNCCCO4)cc3)cc21 [Example 2, (2S)—N-{(1S)-1-Cyano-2-[4-(3-methyl-2-oxo-2,3-dihydro-1,3-benzoxazol-5-yl)phenyl]ethyl}-1,4-oxazepane-2-carboxamide]",No binder
5,Cn1c(=O)oc2ccc(-c3ccc(C[C@@H](C#N)NC(=O)[C@@H]4CCCCN4)cc3)cc21 [WO2009/074829 (Example 96)],Medium binder
